Measurements reported in PubChem BioAssay AID602196 (INSERM, 2012)
In all, the deposit lists about 23,000 reagents; this is a random part of them. In the full data, 455 (2%) were called active. 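Active includes both protection and sensitisation; some change values fall well beyond the stated -50 to +50 range.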 A number with no mark means an inactive call. Further read-outs or replicates are left out here. The record does not give: the amount of reagent.

- Assay: 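Knock-downs that protect lung cancer cells from cisplatin or sensitise them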
- System: human A549 lung cancer cells
- Reagent: siRNA pair against human genes
- Time to read-out: 48 h transfection before cisplatin; time from cisplatin to read-out not stated
- Challenge: cisplatin at a dose killing half of control-siRNA cells; exact dose and duration not given
- Measured: 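Shift in cisplatin death relative to control siRNA, from -50 (all cells die) to +50 (no cells die); siRNAs harmful on their own scored 0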
- Reading the numbers: two-siRNA summed score (-2 to +2): higher = both siRNAs protect from cisplatin killing; -2 means both sensitise; mean protection from cisplatin (shift in death): higher = protection from cisplatin killing
- Hit rule: 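Each siRNA scores 0 if harmful alone by LDH or WST-1, otherwise +1 if it reduces and -1 if it increases cisplatin killing; a gene is active when both siRNAs agree (sum +2 or -2)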
- Meaning of the calls: active = both siRNAs shift cisplatin killing the same way; inactive = no consistent shift, or siRNA harmful alone

For NCLN (GeneID 56926), the values are two-siRNA summed score (-2 to +2) = 0; mean protection from cisplatin (shift in death) (%) = 1.1.
For SNAI2 (GeneID 6591) the deposit lists two-siRNA summed score (-2 to +2) = 0; mean protection from cisplatin (shift in death) (%) = -0.2.
Silencing of FGF9 (GeneID 2254) resulted in: two-siRNA summed score (-2 to +2) = 0; mean protection from cisplatin (shift in death) (%) = 9.5.
Against HOXC9 (GeneID 3225), the values are two-siRNA summed score (-2 to +2) = 1; mean protection from cisplatin (shift in death) (%) = 16.6.
For LOC442729, the values are two-siRNA summed score (-2 to +2) = 0; mean protection from cisplatin (shift in death) (%) = 0.
Silencing of MIMS1 (GeneID 125228) resulted in: two-siRNA summed score (-2 to +2) = 0; mean protection from cisplatin (shift in death) (%) = 0.
TK1 (GeneID 7083) gave two-siRNA summed score (-2 to +2) = 0; mean protection from cisplatin (shift in death) (%) = 6.2.
Depletion of GADD45A (GeneID 1647) gave: two-siRNA summed score (-2 to +2) = 0; mean protection from cisplatin (shift in death) (%) = -0.1.
OR1A1 (GeneID 8383) showed two-siRNA summed score (-2 to +2) = 0; mean protection from cisplatin (shift in death) (%) = -1.1.
Depletion of COX6B2 (GeneID 125965) came out at: two-siRNA summed score (-2 to +2) = 0; mean protection from cisplatin (shift in death) (%) = 1.9.
For GANC (GeneID 2595), the entry reads two-siRNA summed score (-2 to +2) = 1; mean protection from cisplatin (shift in death) (%) = 7.9.
Knock-down of LOC441803 gave: two-siRNA summed score (-2 to +2) = 0; mean protection from cisplatin (shift in death) (%) = 12.3.
MCM2 (GeneID 4171) gave two-siRNA summed score (-2 to +2) = 0; mean protection from cisplatin (shift in death) (%) = -3.4.
Knock-down of MSI2 (GeneID 124540) gave: two-siRNA summed score (-2 to +2) = 0; mean protection from cisplatin (shift in death) (%) = 9.2.
ARHGAP33 (GeneID 115703) gave two-siRNA summed score (-2 to +2) = 0; mean protection from cisplatin (shift in death) (%) = -3.1.
ASGR2 (GeneID 433) showed two-siRNA summed score (-2 to +2) = -1; mean protection from cisplatin (shift in death) (%) = -4.1.
After knock-down of PRDX6 (GeneID 9588) the results were two-siRNA summed score (-2 to +2) = 0; mean protection from cisplatin (shift in death) (%) = 0.2.
Knock-down of MMP27 (GeneID 64066) came out at: two-siRNA summed score (-2 to +2) = 0; mean protection from cisplatin (shift in death) (%) = -1.
Silencing of TET1 (GeneID 80312) came out at: two-siRNA summed score (-2 to +2) = 0; mean protection from cisplatin (shift in death) (%) = 6.9.
Against NPC1L1 (GeneID 29881), the entry reads two-siRNA summed score (-2 to +2) = 0; mean protection from cisplatin (shift in death) (%) = 0.9.
PXYLP1 (GeneID 92370) showed two-siRNA summed score (-2 to +2) = 0; mean protection from cisplatin (shift in death) (%) = 7.9.
Against SELL (GeneID 6402) the deposit lists two-siRNA summed score (-2 to +2) = 0; mean protection from cisplatin (shift in death) (%) = -0.5.
For ZNF503 (GeneID 84858) the deposit lists two-siRNA summed score (-2 to +2) = 0; mean protection from cisplatin (shift in death) (%) = 3.1.
Against EN2 (GeneID 2020), the entry reads two-siRNA summed score (-2 to +2) = 1; mean protection from cisplatin (shift in death) (%) = 12.4.
After knock-down of ZBTB11 (GeneID 27107), the screen gave two-siRNA summed score (-2 to +2) = -1; mean protection from cisplatin (shift in death) (%) = -2.3.
Knock-down of WBP2 (GeneID 23558) resulted in: two-siRNA summed score (-2 to +2) = 0; mean protection from cisplatin (shift in death) (%) = 4.3.
Against DENND4C (GeneID 55667), the entry reads two-siRNA summed score (-2 to +2) = 0; mean protection from cisplatin (shift in death) (%) = 7.1.
Against TMA16 (GeneID 55319), the values are two-siRNA summed score (-2 to +2) = 0; mean protection from cisplatin (shift in death) (%) = -2.9.
UROS (GeneID 7390) scored two-siRNA summed score (-2 to +2) = -1; mean protection from cisplatin (shift in death) (%) = -8.5.
LOC441866 showed two-siRNA summed score (-2 to +2) = 0; mean protection from cisplatin (shift in death) (%) = 32.5.
For LOC390641, the values are two-siRNA summed score (-2 to +2) = 1; mean protection from cisplatin (shift in death) (%) = 10.
